# Source: PubChem BioAssay AID1347426 (Functional Genomics Laboratory (NCATS/FGL), 2020)
# In all, about 31,000 sequences went through this assay and about 1,400 (4.5%) were called active.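 How the source made its calls: active means median seed-adjusted z-score above 1 or below -1; inactive means the rest.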 This is one part of the list.
# Test: Novel Modifiers of Survival Motor Neuron (SMN) Protein: Gene Identification via Genome-wide siRNA Screen;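 further: luminescence tracks full-length SMN protein made from the SMN2 reporter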
# Details: HEK293T SMN2-luciferase reporter, siRNA knockdown, 72 h; actives lie on both sides
# Summary of the method: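 Each of three siRNAs per gene is reverse-transfected (1 pmol) into reporter HEK293T cells whose luciferase output tracks SMN protein level. After 72 h culture, ONE-Glo luminescence is control-normalized, log10-transformed and MAD-standardized; Common Seed Analysis deprioritizes seed-driven hits.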
row,Sequence,median seed-adjusted z-score
1,GCAUUACUACCGCAACGUATT against RAB33A,inactive: 0.307
2,CCAUUAUUGACUCACCCUATT against CSTF2T,inactive: 0.387
3,GCAAAUUUCUCACGCAUCATT against SERPINA6,inactive: 0.615
4,GGAAUAGUAACUACACGUATT against PLB1,inactive: -0.118
5,CGAAAGGUUUAGAAUCAGATT against FGD5,inactive: -0.0561
6,GCCGAGCUCUGCUAUUUGATT against ZHX3,inactive: -0.0916
7,GGAAUUAAGUUCAAACGAATT against DDX21,inactive: -0.251
8,CAAUCGAGGUUCCAUGUAUTT against PKP1,inactive: -0.99
9,CUGCUUCUCUAGUGAGUAATT against UROS,inactive: -0.248
10,GGGCGUCUGGACAUCUGUATT against ASPH,inactive: 0.0199
11,CGAUUACUGGUUCAGGAUATT against NDUFA10,inactive: -0.392
12,UGGUUUUACUGGAGCAUCATT against SLC15A3,inactive: 0
13,CCCAGACUCUAGAUAGACATT against SULT1C3,inactive: -0.731
14,GAGCGACUUUGAUCACCAUTT against PANK2,inactive: 0.121
15,GCUGGAGCAGAUUACCUAATT against ZNF280C,inactive: 0.336
16,CUGCCGCAACAAUAAGAAATT against SNRPD2,inactive: -0.849
17,GAGAGUGUAAGAUCAGUAATT against ATRN,inactive: -0.28
18,GGAAUCUACUGGGAACAAATT against AASS,inactive: -0.626
19,AGAUCAAAGAGAUCCGCGATT against PCBP1,inactive: 0.124
20,CGACUAAAACAAUCUAAGATT against ATP6V1G3,inactive: 0.489
21,GGAUGGUACCACUACAAUATT against ERCC6,inactive: 0.0421
22,GCACGCUCUUCAUCGCCUATT against MC1R,inactive: -0.64
23,GCACAAAGCUGAUCCUGCATT against MYO7A,inactive: -0.0127

# Four neighbouring entries already listed, for reference:
row,Sequence,median seed-adjusted z-score
1,GCAUUACUACCGCAACGUATT against RAB33A,inactive: 0.307
2,CCAUUAUUGACUCACCCUATT against CSTF2T,inactive: 0.387
3,GCAAAUUUCUCACGCAUCATT against SERPINA6,inactive: 0.615
4,GGAAUAGUAACUACACGUATT against PLB1,inactive: -0.118

# More records:

row,Sequence,median seed-adjusted z-score
1,UCUACUAUGUCAUCCUGUATT against KCNE2,inactive: -0.666
2,GCUCGUUCUGAGUCAUAUATT against LRBA,inactive: 0.219
3,CAAGAGAUAUCAUCGAUUATT against ZRANB3,inactive: 0.0516
4,GAAUCGUCAAUGAUGAUCATT against DPYSL3,inactive: -0.226
5,GGCCGUGUACUGUAUCAUUTT against NUP93,active: 1.01
6,CGAUGAUGGCGCAAAAGAATT against ATOH1,inactive: -0.374
7,CCCUGAAUCUUAAUAGGCATT against BBS4,inactive: -0.0339
8,GGUCGAUCAUAUCCAUGUUTT against PDCD6,inactive: 0.325
9,GAUCAUGUCUGUCAUUCGATT against ATP2A2,inactive: 0.314
10,AGAUGAACCGUGCACUGGATT against PIGQ,inactive: 0.00996
11,GCACGAGCCUUUCUCCAGUTT against RNASE7,active: 1.07
12,UCAUCAAGCUGUUUACAGATT against GLP1R,inactive: 0
13,GCAGGAGACUCAAAGAUUUTT against DDO,inactive: -0.202
14,CGCUUGGAGAGGCUACAAATT against FXR2,inactive: -0.133
15,GGAAUUUACAUGGUCUAUUTT against PHF6,inactive: -0.268
16,GCAUCAGAUUUUGUGGGAATT against SLC25A36,inactive: 0.134
17,CUAAUAGAAUGUCUCCAAATT against HMGN2,inactive: -0.038
18,CAACACCAGAAGAUCCAUATT against ZNF22,inactive: 0.47
19,GAGCGGCUCUUACAGGGAUTT against HOXB5,inactive: 0.061
20,CCACCCAUGUCAAAACCGATT against PTGS2,inactive: -0.21
21,GGAUCUCCUUGACAACCUUTT against TXN2,inactive: 0.87
22,GCAUGGUAUUUGAAGUUUUTT against SRPK1,inactive: 0.37
23,AGAGCAUGGUAAAUACCAATT against CDC37,inactive: 0

row,Sequence,median seed-adjusted z-score
1,AGAACUCGCUGUAUACAAUTT against GP1BA,inactive: 0.0803
2,GGUUAUCGACGACAGCAGATT against AGAP3,inactive: 0.554
3,GCAUAGUAGGAUUAAGGCATT against RAPGEF2,inactive: -0.0715
4,GGACCUAUCUGGAAGAGGATT against ITPKC,inactive: 0.218
5,GGCUCCUGGUUACGCUAUATT against MOGAT2,inactive: -0.319
6,GGCUAUAUCGUCACAAUGATT against ABCA4,active: -1.09
7,GGUGUGAACUUGGUGAUCATT against DDX52,inactive: -0.2
8,CUCCACCCUUCAACCCAAATT against SGK2,inactive: 0.306
9,CGAGGAAUGGUAAUAGUGATT against ZFPM2,inactive: 0.087
10,CCCAGUUGCUCUAACGAAATT against DHRS7B,inactive: 0.294
11,GAUCGUCACAAGAAAGAUUTT against ZNF75A,inactive: 0.303
12,GAAACGAUGUUGUGGAGAATT against TNFRSF21,inactive: 0.225
13,GCCUCGUGGAAAUACAGUATT against GIT2,inactive: 0.338
14,GCUGGGUAGUUUGACUGAATT against TRIM61,inactive: 0.0116
15,CAGUGAGAGUUUCAUCUUUTT against PKD1L2,active: -1.17
16,GAGAUGUUCAUGCUACUAATT against SCN7A,inactive: 0
17,CAAUAUUCCGUACAUAGAATT against MRAS,inactive: 0.032
18,CAGUUAUAUGAACGAAUUATT against PLS3,inactive: -0.167
19,GGUGCAACCUUCAAAGACATT against ZNF687,inactive: 0
20,GCUUAUAGCUGCUACAAUUTT against MTMR1,inactive: -0.0204
21,GCCCAUUGACUAUUACUUUTT against AR,inactive: -0.559
22,GAAAGUUGUCAAUACCUGUTT against SRA1,inactive: 0.677
23,GGCUCAGAAAAUUAGAGAATT against P4HA3,inactive: 0
